In PMC7819943, “Rice protein-binding microarrays: a tool to detect cis-acting elements near promoter regions in rice”:
Some of the results follow.

The chains behind the UniProt entries cited, without tags or fusion partners.
UniProt Q0JBA9, entry or part of it: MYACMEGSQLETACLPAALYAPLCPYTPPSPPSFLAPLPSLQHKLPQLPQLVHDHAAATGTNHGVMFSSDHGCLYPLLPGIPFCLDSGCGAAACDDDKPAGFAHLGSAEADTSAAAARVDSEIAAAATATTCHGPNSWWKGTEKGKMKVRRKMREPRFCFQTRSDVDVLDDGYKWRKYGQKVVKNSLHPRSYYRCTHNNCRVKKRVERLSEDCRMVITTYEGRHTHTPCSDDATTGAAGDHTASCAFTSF

The sequences below were run against OsWRKY34 (Oryza sativa, UniProt Q0JBA9 1-250) (assay: protein-binding microarray (RPBM); PBS, 2% BSA, 51.3 ng/ul salmon testes DNA, 50 uM zinc acetate, 200 nM TF, 25 C, 1 h; high values mean tight binding). Conditions: protein: recombinant; tags: N-terminal polyhistidine and DsRed monomer fusion (pET32a); label: CyDye5-dUTP incorporated in the synthesized complementary strand; 3' TTTTT single-stranded linker to array surface; dsDNA, one strand shown.
Summary of the method: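 Transcription factors, each fused N-terminally to a polyhistidine tag and DsRed, were expressed in E. coli BL21-CodonPlus and purified on Ni–NTA. A custom Agilent array was made double-stranded by primer extension with Cy5-dUTP and blocked with 2% BSA. It was incubated with 200 nM protein in PBS, 2% BSA, salmon testes DNA and 50 µM zinc acetate at 25 °C for 1 h, then washed. The binding signal is per-feature fluorescence intensity (arbitrary units) read on an Axon 4000B scanner.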
With “AAGAAACGGGTGTGGTGTGAGGCGGGCAGTTTGGGTGGATCGGAGTCACCTAGTGCAG” the binding signal was 8230 fluorescence intensity (a.u.).
In the case of “TTCTTTTGCTCCGGCTTCTCAAACGTCTCCGCCTTGACCGCGGAGTCACCTAGTGCAG”, the binding signal is reported as 8140 fluorescence intensity (a.u.).
In the case of “GGATCTTTATGTCGTTTCTGGTGTTTCTTATATTTTATTTCGGAGTCACCTAGTGCAG”, the binding signal is reported as 11400 fluorescence intensity (a.u.).
For “GCGCCCATCCCCTCCTGCTCCGCATCGACTCCATCACACGCGGAGTCACCTAGTGCAG”, the binding signal was 10100 fluorescence intensity (a.u.).
For “ATCCATCGGAAACCTCGATACCATATTTGTATTTCTATCCCGGAGTCACCTAGTGCAG”, the binding signal was 12000 fluorescence intensity (a.u.).
With “TCCACCACAATTAACGTGTATATTATTTTTCCTGTTTTCACGGAGTCACCTAGTGCAG” the binding signal was 9370 fluorescence intensity (a.u.).
For “TGAATTTCGCTTATGTACATACGTTGCTTTTACCACTAAACGGAGTCACCTAGTGCAG”, the binding signal was 9500 fluorescence intensity (a.u.).
In the case of “TGTGGAATTTTTTTCATTTTTAAATTTATCTTTTTTAACACGGAGTCACCTAGTGCAG”, the binding signal is reported as 8380 fluorescence intensity (a.u.).
In the case of “CCTTAGTATTGTCTTGGGCTGGGCCTTTGCTGTCGTCTGTCGGAGTCACCTAGTGCAG”, the binding signal is reported as 11200 fluorescence intensity (a.u.).
“GGGGTGGTCTTGTCCTCTACAGGCTCTCCTCCAATCCAACCGGAGTCACCTAGTGCAG” was tested, and the binding signal was 15000 fluorescence intensity (a.u.).
In the case of “TGATGTTGACTAAATTAAGGTGACTATCACCTCCACTATACGGAGTCACCTAGTGCAG”, the binding signal is reported as 8960 fluorescence intensity (a.u.).
For “GCTGCTGTACTACCCAGGTTGATGCCATGCCACTCCTATACGGAGTCACCTAGTGCAG”, the binding signal was 8140 fluorescence intensity (a.u.).
For “ATCCCTAGGTAAACCACCACCAGCACCACCATGGCTCTAACGGAGTCACCTAGTGCAG”, the binding signal was 11300 fluorescence intensity (a.u.).
In the case of “CCACCCATCTCGGCCGGAATCTCCTCCACCACGCCGTCCTCGGAGTCACCTAGTGCAG”, the binding signal is reported as 8350 fluorescence intensity (a.u.).
“GGGGACACAAATTATGTCGTAGGATGCAATGTTATTTTTTCGGAGTCACCTAGTGCAG” was tested, and the binding signal was 8460 fluorescence intensity (a.u.).
For “TCACTTATTAACTGCTTCAGTCTCAATGTCTTGTAAGTTACGGAGTCACCTAGTGCAG”, the binding signal was 9080 fluorescence intensity (a.u.).
“TTGCTCTCACATTTCGTGCACTACATCTTCTCGGTGGTCCCGGAGTCACCTAGTGCAG” was tested, and the binding signal was 8380 fluorescence intensity (a.u.).
“AGTAGTATGATATTTACTTCAATTTCTTTTAGGGCTTGTTCGGAGTCACCTAGTGCAG” was tested, and the binding signal was 9940 fluorescence intensity (a.u.).
With “TGCACCGATTTTTCTCGATATCATTCCATACGCGACCGCACGGAGTCACCTAGTGCAG” the binding signal was 8210 fluorescence intensity (a.u.).
For “CTTTGGCTTCTAGGTTGTATTGGGGTGTAACATTTGCGATCGGAGTCACCTAGTGCAG”, the binding signal was 9860 fluorescence intensity (a.u.).
“ATTACTCAAGCAATCATGTTCATGACAAATACCATCGCCACGGAGTCACCTAGTGCAG” was tested, and the binding signal was 8860 fluorescence intensity (a.u.).
In the case of “GGGTGGTCCTGCTTCTACCTTGTATACAAAACATTTCTTCCGGAGTCACCTAGTGCAG”, the binding signal is reported as 17000 fluorescence intensity (a.u.).
With “TCAGAACCAACCGCTTCCCTTTTACTGTCACTGGCTGTTGCGGAGTCACCTAGTGCAG” the binding signal was 9650 fluorescence intensity (a.u.).
With “TTAGATAATGGGTTAGGAGGGATGGGATTGGGACAAAGATCGGAGTCACCTAGTGCAG” the binding signal was 11600 fluorescence intensity (a.u.).
“TTTGACGTCATCGTATCTAAAGCTATTCCGTTCGTTATCCCGGAGTCACCTAGTGCAG” was tested, and the binding signal was 9260 fluorescence intensity (a.u.).
In the case of “CTCATTTCGATTTGTATCGGTGCGGCGCGGAGCGAGTCCCCGGAGTCACCTAGTGCAG”, the binding signal is reported as 8670 fluorescence intensity (a.u.).
“GACTTTGGCTCGACACATGACTGCTTGACTGCTTGTTTTTCGGAGTCACCTAGTGCAG” was tested, and the binding signal was 9970 fluorescence intensity (a.u.).
With “TTCCATGGCATCCATGTCAACGTCATATCATTTGATTGTACGGAGTCACCTAGTGCAG” the binding signal was 8130 fluorescence intensity (a.u.).
For “GTGAAACCCCTCTATCCTTCGGTGTTTGCCTTCAACTTTCCGGAGTCACCTAGTGCAG”, the binding signal was 9980 fluorescence intensity (a.u.).
For “TTTAGAAATTGAGTTTTTGGGTGGAGGGAGTATACAGGAACGGAGTCACCTAGTGCAG”, the binding signal was 8960 fluorescence intensity (a.u.).
With “GCATCTCCGTCTCGCTGCATTGACCTGTCGCCGTTTGTACCGGAGTCACCTAGTGCAG” the binding signal was 10100 fluorescence intensity (a.u.).
For “ATGGTTCGTGCGGACTCGGCGTCGGTGAGGTGGGCGGGCTCGGAGTCACCTAGTGCAG”, the binding signal was 8490 fluorescence intensity (a.u.).
“TACATGCCATCTCCATCAGATTCCATCGACCATTGGGACCCGGAGTCACCTAGTGCAG” was tested, and the binding signal was 8700 fluorescence intensity (a.u.).
“AGCTAGATGTCTCTTTTTGTTTGACTTTGCCTCTCTTGATCGGAGTCACCTAGTGCAG” was tested, and the binding signal was 9280 fluorescence intensity (a.u.).
With “CCGGCGTCACCAGCCCACCACCGGTCTCCACCGCCACCCTCGGAGTCACCTAGTGCAG” the binding signal was 11400 fluorescence intensity (a.u.).
In the case of “TCCTTTTCCGCCATCTTTTTATCCCAAGAGCATATTTTCCCGGAGTCACCTAGTGCAG”, the binding signal is reported as 8270 fluorescence intensity (a.u.).
“ACAAGTTCCCTTGTTCCCTTTGTAACCTGTATTTTCTACCCGGAGTCACCTAGTGCAG” was tested, and the binding signal was 10100 fluorescence intensity (a.u.).
For “ACGACAAGAACCACCTCTCTCTCTCTCTCTCACTGTCCACCGGAGTCACCTAGTGCAG”, the binding signal was 9040 fluorescence intensity (a.u.).
“TCTTTTTATAGTCAAATTTACTATTTTTGTTTCTATTTGTCGGAGTCACCTAGTGCAG” was tested, and the binding signal was 13400 fluorescence intensity (a.u.).
“TGGTTTAAATTTAGGTTTGGTGTGTGATCTGTACTACCCACGGAGTCACCTAGTGCAG” was tested, and the binding signal was 8190 fluorescence intensity (a.u.).
“TTTGACGTTTTTTCTCGCTGCTATTATCTCCAGGGTGGGGCGGAGTCACCTAGTGCAG” was tested, and the binding signal was 17200 fluorescence intensity (a.u.).
With “AATTGCCACCAGTCTCCATGACAACTGACATTATATATTGCGGAGTCACCTAGTGCAG” the binding signal was 8230 fluorescence intensity (a.u.).
